Laboratory results reported in PubChem BioAssay AID2685 (National Center for Advancing Translational Sciences (NCATS), 2010).
The list shows a part of the results. Further columns of the screen follow, without active or inactive calls. The list favours compounds with an active or inconclusive main result. Words in brackets tell the shape of the fitted curve; partial curves, single points and poor fits give uncertain potencies.

Assay: qHTS Assay for Lipid Storage Modulators in Drosophila S3 Cells;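 for cell number change: cells counted by Cell Tracker Red CMTPX staining in the red channel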
Conditions: BODIPY lipid droplet fluorescence, 18-24 h; for cell number change: measured here: cell count max response, cells fed with added oleic acid
Method in brief: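 Drosophila S3 cells loaded with oleic acid (400 uM, as added) and compounds at several concentrations; lipid droplets imaged by 488-nm laser-scanning cytometry, 500–530 nm intensity and object ratio to cell channel. Percent activity normalized to 20 uM Triacsin C.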

[1] = measured here: cell number channel AC50, cells fed with added oleic acid
[2] = measured here: lipid fluorescence (Fed channel) AC50, cells fed with added oleic acid

SMILES | cell number change | AC50 [1] | AC50 [2]
CCOC(=O)CCSc1nc(-c2ccccc2)cc(C(F)(F)F)n1 | -0.345% | 2.59 µM [rising, partial curve, poor fit] | 4.11 µM [rising, partial curve]
COC(=O)CSc1nnc(CNc2ccc(OC)cc2)n1C | 4.49% | 0.00517 µM [rising, full curve, poor fit] | 29.1 µM [rising, single point]
CCC(C)Sc1ccc([C@@H]2[C@H]3C(=O)N(CC)C(=O)[C@H]3[C@]3(C(=O)OC)CCCN23)cc1OC (stereo partly drawn) | -29.6% |  | 1.3 µM [falling, full curve]
COc1ccc(C(=O)NCC(=O)Nc2ccc(-c3ccccc3)cc2)cc1 | 8.57% |  | 0.206 µM [rising, single point]
COCc1nnc(NC(=O)c2cccc(NC(=O)c3ccccc3)c2)s1 | -1.08% |  | 0.0366 µM [rising, partial curve, poor fit]
CN(Cc1nc(-c2ccccc2)no1)C1CCOCC1 | -2.97% |  | 0.731 µM [falling, full curve, poor fit]
CC(OC(=O)c1ccc(O)cc1)C(=O)Nc1nc(-c2ccccc2)cs1 (stereo not drawn) | -35.3% | 11.6 µM [falling, partial curve, poor fit] | 
COc1ccc(OC)c(NC(=O)c2ccc(Cl)cc2)c1 | 14.2% |  | 0.013 µM [rising, full curve, poor fit]
CCC(C)[C@H](NC(=O)N1CC(=O)Nc2ccccc21)C(=O)Nc1nccs1 (stereo partly drawn) |  | 1.64 µM [falling, partial curve] | 
CC(=O)NC(CC(=O)Nc1cc(Cl)ccc1-n1cncn1)c1ccccc1 (stereo not drawn) | 30.5% | 2.59 µM [rising, full curve, poor fit] | 
COc1ccc(CCNC(=O)c2ccc(=O)[nH]c2)cc1 | -36.6% | 0.164 µM [falling, full curve, poor fit] | 0.366 µM [falling, full curve]
Cc1ccc(CS/C(Nc2ccccc2C)=C(\C#N)C(=O)NCc2ccco2)c(C)c1 | -22.3% |  | 29.1 µM [falling, single point]
Cc1ccc(CNC(=O)c2ccc3c(c2)NC(=O)C(N2CCOCC2)S3)cc1 (stereo not drawn) | 36.3% | 6.51 µM [rising, partial curve] | 29.1 µM [rising, single point]
Cc1csc(=O)n1CCC(=O)OCC(=O)Nc1ccc(C(N)=O)cc1 | 9.09% |  | 
CCC1(C)NC(=O)N(CC(=O)c2cc(C)n(C3CC3)c2C)C1=O (stereo not drawn) | -0.107% |  | 23.1 µM [rising, single point]
Cc1ccc2c(c1C)NC(=O)CC(c1ccccc1O)=N2 | -0.0735% |  | 6.51 µM [rising, single point]
O=C(Nc1ccc(N2CCN(C(=O)c3ccco3)CC2)cc1)c1ccc(Br)cc1 | -12.6% |  | 23.1 µM [rising, partial curve]
CC(=O)C1C(c2ccc(F)cc2)C2C(C)=NN=C2CC1(C)O (stereo not drawn) | 35.9% | 29.1 µM [rising, single point] | 
O=C(O)/C=C/c1cn(Cc2ccccc2)nc1-c1ccc(Cl)cc1 | 6.38% |  | 
CCn1c(C)nc2cc(C#N)ccc21 | 171% | 14.6 µM [rising, partial curve] | 18.4 µM [rising, partial curve]

SMILES | cell number change | AC50 [1] | AC50 [2]
CC(C)(C)c1ccc(OCCCNC2CCCC2)cc1 | -21.4% |  | 
COc1ccc(NC(=O)C2CCN(S(=O)(=O)c3c(C)noc3C)CC2)cc1 | 18.3% |  | 0.731 µM [rising, single point]
Cc1ccc(CCNC(=O)Cn2ccc3cc(S(=O)(=O)N4CCCC4)ccc32)cc1 | -7.25% |  | 29.1 µM [falling, single point]
O=C(COC(=O)c1ccco1)Nc1ccccc1 | -26% | 0.0517 µM [falling, full curve, poor fit] | 0.0517 µM [falling, full curve, poor fit]
Cc1occc1C(=O)N/N=C/c1c(O)ccc2ccccc12 | 79.2% | 20.6 µM [rising, partial curve] | 
CCn1c(SCC(=O)Nc2nc(-c3ccccc3)cs2)nnc1-c1ccccc1O | -22% |  | 7.31 µM [falling, single point]
C/C(=N\NC(=O)c1cccs1)c1ccc2c(c1)OCO2 |  |  | 0.116 µM [rising, full curve, poor fit]
Cc1cccc(N2CCN(C(=O)c3ccc4c(c3)OCCO4)CC2)c1C | 40.6% | 13 µM [rising, partial curve, poor fit] | 29.1 µM [rising, single point]
O=C(Nc1ccc([N+](=O)[O-])cc1)c1cccc(S(=O)(=O)Nc2ccccn2)c1 | 48.3% | 32.6 µM [rising, single point] | 4.11 µM [falling, single point]
O=S(=O)(c1ccc2nc(-c3ccccc3)[nH]c2c1)N1CCN(c2ccc(Cl)cc2)CC1 | -18.6% | 0.164 µM [falling, full curve, poor fit] | 1.84 µM [falling, full curve, poor fit]
CC(Sc1ncc(C(F)(F)F)cc1Cl)C(=O)NCC1CCCO1 (stereo not drawn) |  | 0.411 µM [rising, single point] | 1.03 µM [rising, partial curve, poor fit]
Cc1ccc(C(=O)N/N=C2\CCSC2)cc1[N+](=O)[O-] | 32.8% | 5.17 µM [rising, partial curve] | 1.16 µM [rising, full curve, poor fit]
Cc1ccc2c(c1)COc1c3ccc(C(=O)NCC4CC4)cc3nn1-2 | 3.34% |  | 3.66 µM [rising, partial curve, poor fit]
Fc1cccc(CN2CCCCCCC2)c1 | 22.9% | 0.0058 µM [rising, full curve, poor fit] | 
CN(CC1CCOCC1)C(=O)CC1C(=O)NCCN1Cc1ccccc1F (stereo not drawn) | -10.3% |  | 
O=C1/C(=C\c2ccco2)SC(=S)N1Cc1ccccc1 | -16% |  | 
Cc1ccc(N2CCN(S(=O)(=O)c3nnc(NC(=O)c4ccccc4)s3)CC2)cc1 | 13.5% |  | 5.8 µM [rising, full curve, poor fit]
CCCc1cc(=O)[nH]c(SCC(=O)N(C)CC(=O)Nc2ccccc2CC)n1 | -18.8% |  | 8.2 µM [falling, partial curve]
CCCC(=O)Nc1cc(C)cn(Cc2c(F)cccc2Cl)c1=O |  |  | 0.116 µM [falling, full curve, poor fit]
NC(=O)CC(NC(=O)Cc1ccc(Br)cc1)c1ccc(NC2CCCCCC2)c([N+](=O)[O-])c1 (stereo not drawn) | 16.2% |  | 7.31 µM [rising, partial curve]

SMILES | cell number change | AC50 [1] | AC50 [2]
CC(Sc1nc(-c2ccccc2)cc(C(F)(F)F)n1)C(=O)Nc1ccc2c(c1)OCO2 (stereo not drawn) | -47.1% | 29.1 µM [falling, single point] | 
COc1cccc(C2CC(c3ccc(F)cc3)Nc3nc(N)nn32)c1 (stereo not drawn) |  |  | 6.51 µM [rising, single point]
CCCc1ccc(OCc2ccc(C(=O)N3CCSCC3)o2)cc1 | 2.78% |  | 29.1 µM [falling, partial curve]
CC(NC(=O)C1CCC(CNc2c(N3CCCCC3)c(=O)c2=O)CC1)c1ccccc1 (stereo not drawn) | 33.7% | 4.11 µM [rising, full curve, poor fit] | 5.17 µM [rising, full curve]
CC(=O)c1sc(N/N=C/c2cccc([N+](=O)[O-])c2)nc1C | 0.84% |  | 
Cc1ccccc1Cn1nc(C)c(NC(=O)c2noc3c2CCc2ccccc2-3)c1C |  | 0.146 µM [rising, full curve, poor fit] | 
Nc1ccccc1-c1nnc(SCc2ccccc2F)[nH]c1=O | -7.11% |  | 1.46 µM [rising, partial curve]
O=P(O)(O)c1ccccc1OCc1ccccc1 | -21.2% |  | 0.0517 µM [falling, full curve]
CCOC(=O)c1cc(CC)sc1NC(=O)CC1Sc2ccc(C(F)(F)F)cc2NC1=O (stereo not drawn) | 8.8% |  | 
O=C(CC1Sc2ncnn2C1=O)Nc1ccccc1 (stereo not drawn) | 22.9% |  | 16.4 µM [falling, single point]
CCOc1ccccc1N1CC(C(=O)Nc2nccs2)CC1=O (stereo not drawn) | -1.36% |  | 
CCN(CC)C(=O)CSc1nc2c(sc(=S)n2-c2ccccc2)c(=O)[nH]1 | 35.6% |  | 
COc1ccc(OC)c(NC(=O)c2cn(C)c(=O)c3cc(OC)c(OC)cc23)c1 |  |  | 6.51 µM [rising, partial curve, poor fit]
Cc1ccc(NN2C(=O)C=C(c3ccccc3)C2=O)cc1 | -32.2% | 2.06 µM [falling, partial curve] | 0.82 µM [falling, partial curve]
CCc1ccccc1NC(=S)N1CCN(c2ccccn2)CC1 | 4.16% |  | 
COc1ccc(S(=O)(=O)N2CCOCC2)cc1NC(=O)c1ccccc1C | 14.6% |  | 8.2 µM [falling, partial curve]
CC1(C)SC(=S)N(/N=C/c2ccccc2)C1N(O)C(=O)Nc1ccc([N+](=O)[O-])cc1 (stereo not drawn) |  | 3.26 µM [rising, single point] | 3.26 µM [rising, single point]
O=C(N/N=C/c1ccc([N+](=O)[O-])o1)C1CC1 |  |  | 4.11 µM [falling, single point]
CN1CCc2[nH]c3ccc(C(=O)NN)cc3c2C1 | 3.78% |  | 6.51 µM [falling, single point]

Gathered by group: the compounds so far containing bromine (two)
SMILES | cell number change | AC50 [1] | AC50 [2]
O=C(Nc1ccc(N2CCN(C(=O)c3ccco3)CC2)cc1)c1ccc(Br)cc1 | -12.6% |  | 23.1 µM [rising, partial curve]
NC(=O)CC(NC(=O)Cc1ccc(Br)cc1)c1ccc(NC2CCCCCC2)c([N+](=O)[O-])c1 (stereo not drawn) | 16.2% |  | 7.31 µM [rising, partial curve]
